Measured values reported in PubChem BioAssay AID248 (DTP/NCI, 2004).
The list shows only some results of the screen, not a fair sample: it is rich in T/C values a quarter to a half above the control, in often repeated tests (any T/C) and in doses without a T/C. Other doses and runs of a compound stand elsewhere. T/C gives the treated animals as a percentage of the vehicle group. Some doses have a count of surviving animals in place of a T/C: the source holds a T/C of zero for them, seemingly a mark for toxic or unscored doses. Some doses without a T/C left all or most animals alive at the check, yet need not have been tolerated: survival well below the control is almost never listed, so the zero probably covers shortened survival too. Counts of survivors are from the toxicity check (mostly the fifth day) where no day follows; animals may have died later. Schedules are NCI's codes, taken here to give the interval after Q, in days (D) or hours (H), and the number of doses after X. Some doses were run more than once; the results are listed from low to high. Some schedule codes hold Z or #, which are not explained here. Where survival is the endpoint, the PubChem record calls one and a half times the control and up active, and a quarter to a half above the control has no call in these data; cut-offs in other NCI protocols can differ.

Tested on: L1210 leukemia ip in BDF1 mice, survival T/C
Assay: NCI In Vivo Anticancer Drug Screen. Data for tumor model L1210 Leukemia (intraperitoneal) in B6D2F1 (BDF1) mice
Conditions: T/C endpoint: mean survival time, higher T/C = longer survival
[1] = dose: 400.0 mg/kg/injection, schedule: Q01DX001 (ip), vehicle: carboxymethylcellulose (CMC)
[2] = dose: 25.0 mg/kg/injection, schedule: Q01DX009 (ip), vehicle: saline
[3] = dose: 50.0 mg/kg/injection, schedule: Q01DX009 (ip), vehicle: saline
[4] = dose: 100.0 mg/kg/injection, schedule: Q01DX009 (ip), vehicle: saline
[5] = dose: 200.0 mg/kg/injection, schedule: Q01DX009 (ip), vehicle: saline
[6] = dose: 100.0 mg/kg/injection, schedule: Q01DX001 (ip), vehicle: saline
[7] = dose: 200.0 mg/kg/injection, schedule: Q01DX001 (ip), vehicle: saline
[8] = dose: 400.0 mg/kg/injection, schedule: Q01DX001 (ip), vehicle: saline
[9] = dose: 150.0 mg/kg/injection, schedule: Q01DX001 (ip), vehicle: saline
[10] = dose: 300.0 mg/kg/injection, schedule: Q01DX001 (ip), vehicle: saline

COC(=O)C1=C(C(=O)OC)C(C(=O)OC)N2C=CC=CC2=C1C(=O)OC (stereo unspecified)
survivor count [1]: 2 of 4

COP(S)(=N/N=C/c1ccccn1)OC
survivor count (dose: 50.0 mg/kg/injection, schedule: Q04DX003 (ip), vehicle: saline with Tween-80): 0 of 6
survivor count (dose: 100.0 mg/kg/injection, schedule: Q04DX003 (ip), vehicle: saline with Tween-80): 0 of 6
survivor count (dose: 200.0 mg/kg/injection, schedule: Q04DX003 (ip), vehicle: saline with Tween-80): 0 of 6
survivor count (dose: 400.0 mg/kg/injection, schedule: Q04DX003 (ip), vehicle: saline with Tween-80): 0 of 6

CC[As](=O)(O)c1ccccc1
survivor count [2]: 0 of 3 and 1 of 3
survivor count [3]: 0 of 3
survivor count [4]: 0 of 3 and 0 of 6
survivor count [5]: 0 of 6
survivor count (dose: 400.0 mg/kg/injection, schedule: Q01DX009 (ip), vehicle: saline): 0 of 6

c1ccc([P+](Cc2ccc3c(c2)OCO3)(c2ccccc2)c2ccccc2)cc1
survivor count [2]: 5 of 6
survivor count [3]: 0 of 6
survivor count [6]: 1 of 6
survivor count [7]: 0 of 6
survivor count [8]: 0 of 6

N#CCc1ccccc1-c1ccccc1CC#N
survivor count (dose: 100.0 mg/kg/injection, schedule: Q01DX001 (ip), vehicle: other): 1 of 4
survivor count (dose: 200.0 mg/kg/injection, schedule: Q01DX001 (ip), vehicle: other): 0 of 4
survivor count (dose: 400.0 mg/kg/injection, schedule: Q01DX001 (ip), vehicle: other): 0 of 4

C[CH2][Pb]([CH2]C)([CH2]C)[N]1C(=O)c2ccccc2C1=O
survivor count (dose: 100.0 mg/kg/injection, schedule: Q04DX002 (ip), vehicle: Klucel (hydroxypropylcellulose) (HPC)): 1 of 3
survivor count (dose: 200.0 mg/kg/injection, schedule: Q04DX002 (ip), vehicle: Klucel (hydroxypropylcellulose) (HPC)): 0 of 3
survivor count (dose: 400.0 mg/kg/injection, schedule: Q04DX002 (ip), vehicle: Klucel (hydroxypropylcellulose) (HPC)): 0 of 3

CC(=O)N(c1ccncc1)c1ccc([N+](=O)[O-])cc1
survivor count (dose: 400.0 mg/kg/injection, schedule: Q01DX009 (ip), vehicle: saline with Tween-80): 0 of 3 and 0 of 6
survivor count (dose: 400.0 mg/kg/injection, schedule: Q04DX002 (ip), vehicle: saline with Tween-80): 0 of 3

CCN(CC)CCNCCN
survivor count [4]: 2 of 6
survivor count [5]: 0 of 6
survivor count (dose: 400.0 mg/kg/injection, schedule: Q04DX003 (ip), vehicle: saline): 0 of 6

O=C(O)c1ccc(Br)s1
survivor count [8]: 0 of 4

O=Ic1ccccc1
survivor count (dose: 100.0 mg/kg/injection, schedule: Q01DX009 (ip), vehicle: Klucel (hydroxypropylcellulose) (HPC)): 0 of 6
survivor count (dose: 200.0 mg/kg/injection, schedule: Q04DX003 (ip), vehicle: Klucel (hydroxypropylcellulose) (HPC)): 0 of 6

CCCCCCCNC
survivor count [1]: 2 of 4

NCC(=O)Oc1c(Cl)c(Cl)c(Cl)c(Cl)c1Cl
survivor count [9]: 0 of 6
survivor count [10]: 0 of 6

CC(=O)Oc1ccc(Cl)cc1/C=C\C=O
survivor count [8]: 3 of 6

CCOC(=O)CNC(=O)N(CCCl)N=O
T/C (dose: 200.0 mg/kg/injection, schedule: Q01DX Z (ip), vehicle: carboxymethylcellulose (CMC)): 125 % of control
T/C (dose: 300.0 mg/kg/injection, schedule: Q01DX Z (ip), vehicle: carboxymethylcellulose (CMC)): 125 % of control

CCN=C(NCC)c1ccc(NC(=O)c2ccc(C(=O)Nc3ccc(C(=NCC)NCC)cc3)c(Cl)c2)cc1
survivor count (dose: 15.0 mg/kg/injection, schedule: Q01DX Z (ip), vehicle: carboxymethylcellulose (CMC)): 0 of 6
survivor count (dose: 30.0 mg/kg/injection, schedule: Q01DX Z (ip), vehicle: carboxymethylcellulose (CMC)): 0 of 6
survivor count (dose: 60.0 mg/kg/injection, schedule: Q01DX Z (ip), vehicle: carboxymethylcellulose (CMC)): 0 of 6
survivor count (dose: 120.0 mg/kg/injection, schedule: Q01DX Z (ip), vehicle: carboxymethylcellulose (CMC)): 0 of 6

N#Cc1cnc(N)nc1N
survivor count (dose: 300.0 mg/kg/injection, schedule: Q01DX001 (ip), vehicle: carboxymethylcellulose (CMC)): 3 of 6
survivor count (dose: 300.0 mg/kg/injection, schedule: Q01DX009 (ip), vehicle: Klucel (hydroxypropylcellulose) (HPC)): 2 of 6

COC1C(OC(=O)/C=C/C=C/C=C/C=C/C(=O)O)CCC2(CO2)C1C1(C)OC1CC=C(C)C (stereo unspecified)
T/C (dose: 80.0 mg/kg/injection, schedule: Q01DX Z (ip), vehicle: methylcellulose (MC)): 125 % of control
survivor count [8]: 0 of 6

COc1cc(C(=O)CC(O)(C(F)(F)F)C(F)(F)F)cc(OC)c1OC
survivor count (dose: 400.0 mg/kg/injection, schedule: Q01DX001 (ip), vehicle: Klucel (hydroxypropylcellulose) (HPC)): 6 of 6

CC1(C)N=C(N)N=C(N)N1c1cccc(CCCCCc2ccccc2)c1
survivor count (dose: 50.0 mg/kg/injection, schedule: Q01DX001 (ip), vehicle: saline): 2 of 6
survivor count [6]: 0 of 6 and 1 of 6
survivor count [7]: 0 of 6
survivor count [8]: 0 of 6

CCCCCCCCCCCCCC(=O)CC
T/C (dose: 200.0 mg/kg/injection, schedule: Q01DX009 (ip), vehicle: saline with Tween-80): 129 % of control

CCCSc1ccc(N2C(N)=NC(N)=NC2(C)C)cc1
survivor count (dose: 75.0 mg/kg/injection, schedule: Q01DX009 (ip), vehicle: saline with Tween-80): 0 of 6
survivor count [6]: 1 of 6
survivor count (dose: 115.0 mg/kg/injection, schedule: Q04DX003 (ip), vehicle: saline): 1 of 6
survivor count (dose: 170.0 mg/kg/injection, schedule: Q04DX003 (ip), vehicle: saline): 0 of 6
survivor count [7]: 0 of 6
survivor count [8]: 0 of 6

CC(=O)NC1CCC(/C=C(\C#N)C2CCC([N+](=O)[O-])CC2)CC1 (stereo unspecified)
survivor count (dose: 100.0 mg/kg/injection, schedule: Q04DX002 (ip), vehicle: saline with Tween-80): 3 of 3

Clc1ccc2c(c1)/C(=C/c1cccnc1)c1cc(Cl)cc(Cl)c1-2
survivor count (dose: 100.0 mg/kg/injection, schedule: Q01DX001 (ip), vehicle: Klucel (hydroxypropylcellulose) (HPC)): 6 of 6
survivor count (dose: 400.0 mg/kg/injection, schedule: Q01DX009 (ip), vehicle: Klucel (hydroxypropylcellulose) (HPC)): 6 of 6

CC[N+](C)(CC)CCN1c2ccccc2Sc2ccccc21
survivor count (dose: 12.5 mg/kg/injection, schedule: Q04DX003 (ip), vehicle: saline): 6 of 6

CCCCCCCC/C=C/CCCCCCCC(=O)NCC[N+]1(C)CCCCC1
survivor count [9]: 0 of 6
survivor count [10]: 0 of 6
